Data on 26 molecules can be found in PubChem BioAssay AID248 (DTP/NCI, 2004).

The list shows only some results of the screen, not a fair sample: it gathers tests that were run many times, whatever their T/C, doses with no T/C, and many T/C values between a quarter and a half above the control. Other doses and runs of a compound stand elsewhere. T/C is the treated group as % of the vehicle group. Some entries give survivors of the animals treated and no T/C: the source holds a T/C of zero for them, seemingly a mark for toxic or unscored doses. Some survivor counts are full or nearly so, which does not show that the dose was tolerated: survival well below the control is almost never listed, so the zero probably covers shortened survival too. Counts of survivors are from the toxicity check (mostly the fifth day) where no day follows; animals may have died later. Schedule codes are those of the source, taken here to give the interval after Q, in days (D) or hours (H), and the number of doses after X. Some entries were tested several times; the values are given in rising order. Some schedule codes hold Z or #, which are not explained here. Where survival is the endpoint, the PubChem record calls one and a half times the control and up active, and a quarter to a half above the control has no call in these data; cut-offs in other NCI protocols can differ. Some T/C values carry the count of animals alive at the toxicity check (mostly the fifth day); where none is given, no animal had died by that day.

This assay relates to L1210 leukemia ip in BDF1 mice, survival T/C. Kind of assay: NCI In Vivo Anticancer Drug Screen. Data for tumor model L1210 Leukemia (intraperitoneal) in B6D2F1 (BDF1) mice. The settings on record: T/C endpoint: mean survival time, higher T/C = longer survival.
Where [1] appears, read: dose: 100.0 mg/kg/injection, schedule: Q01DX009 (ip), vehicle: saline.
The mark [2] stands for this setting: dose: 200.0 mg/kg/injection, schedule: Q04DX003 (ip), vehicle: saline.
Where [3] appears, read: dose: 400.0 mg/kg/injection, schedule: Q04DX003 (ip), vehicle: saline.
[4] abbreviates: dose: 400.0 mg/kg/injection, schedule: Q04DX003 (ip), vehicle: saline with Tween-80.
Setting [5] is: dose: 400.0 mg/kg/injection, schedule: Q01DX005 (ip), vehicle: saline.
[6] abbreviates: dose: 200.0 mg/kg/injection, schedule: Q04DX003 (ip), vehicle: saline with Tween-80.
Where [7] appears, read: dose: 400.0 mg/kg/injection, schedule: Q04DX003 (ip), vehicle: Klucel (hydroxypropylcellulose) (HPC).
[8] abbreviates: dose: 200.0 mg/kg/injection, schedule: Q01DX009 (ip), vehicle: saline.
Where [9] appears, read: dose: 400.0 mg/kg/injection, schedule: Q01DX009 (ip), vehicle: saline.
The mark [10] stands for this setting: dose: 100.0 mg/kg/injection, schedule: Q01DX009 (ip), vehicle: saline with Tween-80.
Where [11] appears, read: dose: 200.0 mg/kg/injection, schedule: Q01DX009 (ip), vehicle: saline with Tween-80.
Where [12] appears, read: dose: 400.0 mg/kg/injection, schedule: Q01DX009 (ip), vehicle: saline with Tween-80.
Where [13] appears, read: dose: 40.0 mg/kg/injection, schedule: Q01DX004 (ip), vehicle: saline with Tween-80.
Where [14] appears, read: dose: 60.0 mg/kg/injection, schedule: Q01DX004 (ip), vehicle: saline with Tween-80.

As for `Cc1cccc(C)c1NC(=S)N(C)C`, the survivor count under setting [1] is 1 of 6, the survivor count under setting [2] is 0 of 6 and the survivor count under setting [3] was 0 of 6.

Regarding `CCCCc1ccc(-n2cnc3c(=O)[nH]c(N)nc32)cc1`, under setting [4], the survivor count is 6 of 6.

Take `Cn1cnc([N+](=O)[O-])c1/N=C/c1ccccc1`: the survivor count under setting [5] is recorded as 0 of 3.

Turning to `COc1ccc(CN=C(N)CSS(=O)(=O)O)cc1`, the survivor count (dose: 50.0 mg/kg/injection, schedule: Q04DX002 (ip), vehicle: Klucel (hydroxypropylcellulose) (HPC)) is 0 of 3.

`O=C(/C(=C\c1ccccc1)CBr)c1ccc(Br)cc1`: the survivor count (dose: 25.0 mg/kg/injection, schedule: Q01DX009 (ip), vehicle: saline) was 6 of 6; the survivor count (dose: 50.0 mg/kg/injection, schedule: Q01DX009 (ip), vehicle: saline) is on record as 3 of 6; the survivor count (dose: 100.0 mg/kg/injection, schedule: Q04DX003 (ip), vehicle: saline with Tween-80) is on record as 3 of 6; the survivor count under setting [6] was 1 of 6; the survivor count under setting [4] was 1 of 6.

Regarding `O=c1ccc2c([nH]1)CCC2`, the survivor count (dose: 200.0 mg/kg/injection, schedule: Q04DX003 (ip), vehicle: Klucel (hydroxypropylcellulose) (HPC)) is 6 of 6 and the survivor count under setting [7] is 0 of 6.

On to `NC1CC[N-]CC1.NC1CC[N-]CC1.[Cl][Pt+2]([Cl])([Cl])[Cl]`, for which the survivor count by setting is: under setting [1], 3 of 6; under setting [8], 0 of 6; under setting [2], 3 of 6; under setting [9], 0 of 6; under setting [3], 0 of 6.

Turning to `Cc1c(N)ccc(O)c1C`, the survivor count is 4 of 6 under setting [10], 1 of 6 under setting [11] and 0 of 6 under setting [12].

Consider `C/C=C(\CC)C(=O)O.[Pb]`, for which the survivor count (dose: 200.0 mg/kg/injection, schedule: Q04DX002 (ip), vehicle: saline with Tween-80) is 0 of 3.

On to `CCCCC(=O)OCC(=O)[C@]1(O)Cc2c(O)c3c(c(O)c2[C@@H](OC2CC(NC(=O)C(F)(F)F)C(O)C(C)O2)C1)C(=O)c1c(OC)cccc1C3=O` (some centres not stated), for which the T/C runs as follows: (dose: 15.0 mg/kg/injection, schedule: Q01DX004 (ip), vehicle: saline with Tween-80, evaluated on day 30) 142 % of control; (dose: 15.0 mg/kg/injection, schedule: Q01DX004 (ip), vehicle: saline with Tween-80, evaluated on day 60) 141 % of control; (dose: 20.0 mg/kg/injection, schedule: Q01DX004 (ip), vehicle: saline with Tween-80, evaluated on day 30) 140 and 147 % of control; (dose: 20.0 mg/kg/injection, schedule: Q01DX004 (ip), vehicle: saline with Tween-80, evaluated on day 60) 141 % of control; (dose: 30.0 mg/kg/injection, schedule: Q01DX004 (ip), vehicle: saline with Tween-80, evaluated on day 30) 141 % of control; (dose: 30.0 mg/kg/injection, schedule: Q01DX004 (ip), vehicle: saline with Tween-80, evaluated on day 60) 139 % of control. Further, the T/C runs as follows: under setting [13], 110 [5 of 6 alive], 134, 140 % of control; under setting [14], 102 and 155 % of control [6 of 7 alive]. Moreover, the survivor count under setting [13] is 8 of 8; the survivor count (dose: 50.0 mg/kg/injection, schedule: Q01DX004 (ip), vehicle: saline with Tween-80) is listed as 5 of 6; the survivor count under setting [14] is 3 of 6 and 8 of 8; the survivor count (dose: 80.0 mg/kg/injection, schedule: Q01DX004 (ip), vehicle: saline with Tween-80) was 7 of 8 and 8 of 8.

As to `CCN(CC)CCOC(=O)Nc1cccc(Cl)c1`, the survivor count by setting is: under setting [8], 0 of 6; under setting [9], 0 of 6.

Take `O=C(/C=C(\c1ccccc1)N1CC1)c1ccccc1`: under setting [7], the survivor count is recorded as 1 of 6.

For `CCC(=O)NC1(C(=O)O)CCCc2ccccc21` (configuration not stated), the survivor count under setting [7] is 0 of 6.

Turning to `NC(N)=N/N=C/C(Cl)(Cl)Cl`, under “dose: 120.0 mg/kg/injection, schedule: Q01DX Z (ip), vehicle: saline”, the T/C is 128 % of control.

Regarding `C=CC1(O)CC2CCC1C2` (configuration not stated), the survivor count under setting [12] was 5 of 6.

With `CN(C)/N=N\c1nc[nH]c1C(=O)N1CCCC1`, the T/C was 126 % of control (dose: 88.0 mg/kg/injection, schedule: Q01DX009 (ip), vehicle: saline with Tween-80); 148 % of control under setting [10]; 146 % of control (dose: 133.0 mg/kg/injection, schedule: Q01DX009 (ip), vehicle: saline with Tween-80); 127 % of control (dose: 300.0 mg/kg/injection, schedule: Q01DX009 (ip), vehicle: saline with Tween-80); 133 % of control under setting [12].

Regarding `Cn1cnc([N+](=O)[O-])c1[Se]c1nc(N)nc2nc[nH]c12`, the T/C (dose: 12.5 mg/kg/injection, schedule: Q01DX005 (ip), vehicle: other) was 136 % of control. Moreover, the survivor count by setting is: (dose: 100.0 mg/kg/injection, schedule: Q01DX005 (ip), vehicle: other) 0 of 6; (dose: 200.0 mg/kg/injection, schedule: Q01DX005 (ip), vehicle: other) 0 of 6.

In the case of `CC(=O)NC/C(C)=N/Nc1ccc([N+](=O)[O-])cc1[N+](=O)[O-]`, the survivor count under setting [6] is 2 of 6 and the survivor count under setting [4] is 0 of 6.

Take `CCOc1cc(/C=N/NC(=O)C[n+]2ccccc2)ccc1O`: the survivor count under setting [10] is recorded as 2 of 6, the survivor count under setting [11] is listed as 3 of 6 and the survivor count under setting [12] is reported as 0 of 6.

With `CC(=O)Nc1ccc(S(=O)(=O)N2CC2)cc1`, under setting [5], the survivor count is listed as 2 of 4.

For the molecule `N#Cc1ccc(C(CCCCC(Cc2ccccc2)c2ccc(C#N)cc2)Cc2ccccc2)cc1` (configuration not stated), where the note is “dose: 100.0 mg/kg/injection, schedule: Q01DX001 (ip), vehicle: saline”, the survivor count is reported as 2 of 4.

For the molecule `NC(CSS(=O)(=O)O)=NCCCc1c[nH]c2ccccc12`, the survivor count is given as 3 of 3 (dose: 100.0 mg/kg/injection, schedule: Q04DX002 (ip), vehicle: Klucel (hydroxypropylcellulose) (HPC)); 0 of 3 (dose: 200.0 mg/kg/injection, schedule: Q04DX002 (ip), vehicle: Klucel (hydroxypropylcellulose) (HPC)); 0 of 3 (dose: 400.0 mg/kg/injection, schedule: Q04DX002 (ip), vehicle: Klucel (hydroxypropylcellulose) (HPC)).

For `CCN=C(NCC)c1ccc(NC(=O)Nc2ccc(NC(=O)Nc3ccc(C(=NCC)NCC)cc3)cc2)cc1`, the survivor count is, setting by setting: (dose: 14.0 mg/kg/injection, schedule: Q01DX Z (ip), vehicle: water) 0 of 6; (dose: 28.0 mg/kg/injection, schedule: Q01DX Z (ip), vehicle: water) 0 of 6; (dose: 56.0 mg/kg/injection, schedule: Q01DX Z (ip), vehicle: water) 0 of 6; (dose: 112.0 mg/kg/injection, schedule: Q01DX Z (ip), vehicle: water) 0 of 6.

On to `CCCCCCCC(=O)N(CCCCC)CCCCC`, for which, where the note is “dose: 400.0 mg/kg/injection, schedule: Q01DX009 (ip), vehicle: carboxymethylcellulose (CMC)”, the survivor count is 2 of 3 and 5 of 6.

Take `CCN(CC)C(=O)Nc1cccc(OC(=O)NC)c1`: under setting [4], the survivor count was 6 of 6.

With `COc1cc(OC)c(/C=C/c2cc3ccccc3c[n+]2C)c(OC)c1`, the survivor count is 0 of 3 (dose: 50.0 mg/kg/injection, schedule: Q01DX009 (ip), vehicle: saline with Tween-80); 0 of 3 under setting [10]; 0 of 3 under setting [11].
